{
  "sequences": {"note": "Amino acid sequences for entries named in this document (tags omitted).", "UniProt P13864": "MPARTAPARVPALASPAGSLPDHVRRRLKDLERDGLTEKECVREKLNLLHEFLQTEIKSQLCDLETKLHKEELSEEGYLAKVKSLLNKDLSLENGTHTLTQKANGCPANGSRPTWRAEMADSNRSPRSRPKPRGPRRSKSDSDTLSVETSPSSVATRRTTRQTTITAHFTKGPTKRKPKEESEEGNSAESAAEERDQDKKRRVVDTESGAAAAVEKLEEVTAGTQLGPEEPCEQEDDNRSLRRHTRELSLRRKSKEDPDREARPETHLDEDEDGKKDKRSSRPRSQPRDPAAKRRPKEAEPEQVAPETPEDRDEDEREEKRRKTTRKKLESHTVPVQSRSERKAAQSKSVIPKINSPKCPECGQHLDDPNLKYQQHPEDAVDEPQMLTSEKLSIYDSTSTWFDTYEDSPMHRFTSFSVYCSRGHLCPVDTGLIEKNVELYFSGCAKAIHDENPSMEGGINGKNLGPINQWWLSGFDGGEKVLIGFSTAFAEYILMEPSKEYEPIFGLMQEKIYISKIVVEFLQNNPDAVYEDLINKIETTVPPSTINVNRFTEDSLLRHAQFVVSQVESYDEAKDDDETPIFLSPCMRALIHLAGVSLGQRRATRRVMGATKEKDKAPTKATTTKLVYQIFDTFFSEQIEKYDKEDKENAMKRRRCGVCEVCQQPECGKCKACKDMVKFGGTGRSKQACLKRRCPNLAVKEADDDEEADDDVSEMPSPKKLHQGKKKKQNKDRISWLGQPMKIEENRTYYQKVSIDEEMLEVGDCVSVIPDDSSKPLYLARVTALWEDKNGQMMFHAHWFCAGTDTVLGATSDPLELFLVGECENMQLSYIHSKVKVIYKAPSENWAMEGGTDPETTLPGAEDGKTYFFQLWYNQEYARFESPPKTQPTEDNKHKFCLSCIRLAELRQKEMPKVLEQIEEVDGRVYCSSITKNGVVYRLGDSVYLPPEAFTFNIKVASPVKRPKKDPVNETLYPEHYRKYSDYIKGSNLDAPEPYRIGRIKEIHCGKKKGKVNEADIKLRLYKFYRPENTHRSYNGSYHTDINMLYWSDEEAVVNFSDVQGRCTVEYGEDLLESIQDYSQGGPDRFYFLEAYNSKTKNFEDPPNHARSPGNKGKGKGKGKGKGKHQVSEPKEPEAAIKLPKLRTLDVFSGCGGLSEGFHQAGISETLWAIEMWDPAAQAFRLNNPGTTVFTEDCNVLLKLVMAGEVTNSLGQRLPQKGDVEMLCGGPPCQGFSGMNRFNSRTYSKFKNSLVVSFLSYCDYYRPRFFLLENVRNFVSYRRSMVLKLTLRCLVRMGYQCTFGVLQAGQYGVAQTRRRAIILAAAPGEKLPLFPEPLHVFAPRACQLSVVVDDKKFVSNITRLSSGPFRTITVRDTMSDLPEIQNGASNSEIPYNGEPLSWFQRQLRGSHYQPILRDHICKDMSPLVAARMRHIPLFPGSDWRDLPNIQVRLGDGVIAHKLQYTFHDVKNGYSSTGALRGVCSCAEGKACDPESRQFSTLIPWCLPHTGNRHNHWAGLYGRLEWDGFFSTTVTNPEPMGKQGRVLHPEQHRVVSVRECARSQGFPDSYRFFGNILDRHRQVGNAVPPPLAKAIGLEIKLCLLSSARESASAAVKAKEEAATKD"},
  "source": "paper PMC7469483",
  "molecular_target": "DNA methyltransferase 1 (DNMT1) (UniProt P13864)",
  "assay": "co-IP; Suv39h1 and Dnmt1 overexpressed in HEK293 cells; 1 mg lysate in modified RIPA buffer (50 mM Tris-HCl, 1 mM EDTA, 1% Nonidet P-40, 0.25% sodium deoxycholate, 150 mM NaCl) incubated with anti-DNMT1 antibody and protein A/G agarose beads at 4°C overnight; immunoblot with anti-SUV39H1",
  "note": "These are yes or no findings as the source states them, for the method shown. Binding seen in cells or lysates may run through a third protein. Some entries that bind do so weakly or less than the wild type.",
  "data": [
    {"binder": "SUV39H1 (suppressor of variegation 3-9 1) (enzyme, UniProt O54864 1-412) MAENLKGCSVCCKSSWNQLQDLCRLAKLSCPALGVSKKNLYDFEVEYLCDYKKIREQEYYLVKWRGYPDSENTWEPRQNLKCIRVLKQFHKDLERELVRRHRRSKPPRHLDPNLANYLVQKAKQRRALQRWEQELNAKRSHLGRITVENEVDLDGPPRSFVYINEYRVGEGITLNQVAVGCECQDCLLAPTGGCCPGASLHKFAYNDQGQVRLKAGQPIYECNSRCCCGYDCPNRVVQKGIRYDLCIFRTNDGRGWGVRTLEKIRKNSFVMEYVGEIITSEEAERRGQIYDRQGATYLFDLDYVEDVYTVDAAYYGNISHFVNHSCDPNLQVYNVFIDNLDERLPRIAFFATRTIWAGEELTFDYNMQVDPVDMESTRMDSNFGLAGLPGSPKKRVRIECKCGTTACRKYLF", "values": [
      {"measurement": "binding", "result": "binds"}
    ]}
  ]
}
